Laboratory results as given in publication PMC7052135.
These are yes or no findings as the source states them, for the method shown. Binding seen in cells or lysates may run through a third protein. Binding can be weak; no strength is given.

Chains of the proteins cited; added tags and fusions are not shown. Lines headed by an entry give the natural chain unless they say otherwise; changes in a name come on top.
UniProt P42224: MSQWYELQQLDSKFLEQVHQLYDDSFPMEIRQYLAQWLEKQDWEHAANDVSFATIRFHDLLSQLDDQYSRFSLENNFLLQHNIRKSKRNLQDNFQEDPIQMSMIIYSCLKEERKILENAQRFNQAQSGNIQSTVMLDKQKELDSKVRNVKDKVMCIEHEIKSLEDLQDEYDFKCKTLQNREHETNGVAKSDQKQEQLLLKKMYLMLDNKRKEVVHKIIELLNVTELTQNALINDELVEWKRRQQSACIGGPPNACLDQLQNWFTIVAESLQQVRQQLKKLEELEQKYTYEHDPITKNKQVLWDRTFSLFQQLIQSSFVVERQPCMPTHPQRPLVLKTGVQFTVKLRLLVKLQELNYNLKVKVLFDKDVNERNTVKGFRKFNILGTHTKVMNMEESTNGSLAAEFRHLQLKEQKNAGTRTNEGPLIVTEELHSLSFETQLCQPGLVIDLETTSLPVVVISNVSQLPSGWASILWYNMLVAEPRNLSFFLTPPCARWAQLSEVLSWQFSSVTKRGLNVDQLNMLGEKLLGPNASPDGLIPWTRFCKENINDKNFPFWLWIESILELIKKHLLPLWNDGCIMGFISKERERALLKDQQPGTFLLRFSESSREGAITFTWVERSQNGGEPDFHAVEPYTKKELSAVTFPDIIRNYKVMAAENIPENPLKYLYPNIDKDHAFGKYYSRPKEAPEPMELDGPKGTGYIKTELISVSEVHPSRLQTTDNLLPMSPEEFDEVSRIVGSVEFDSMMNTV
UniProt Q96EP0: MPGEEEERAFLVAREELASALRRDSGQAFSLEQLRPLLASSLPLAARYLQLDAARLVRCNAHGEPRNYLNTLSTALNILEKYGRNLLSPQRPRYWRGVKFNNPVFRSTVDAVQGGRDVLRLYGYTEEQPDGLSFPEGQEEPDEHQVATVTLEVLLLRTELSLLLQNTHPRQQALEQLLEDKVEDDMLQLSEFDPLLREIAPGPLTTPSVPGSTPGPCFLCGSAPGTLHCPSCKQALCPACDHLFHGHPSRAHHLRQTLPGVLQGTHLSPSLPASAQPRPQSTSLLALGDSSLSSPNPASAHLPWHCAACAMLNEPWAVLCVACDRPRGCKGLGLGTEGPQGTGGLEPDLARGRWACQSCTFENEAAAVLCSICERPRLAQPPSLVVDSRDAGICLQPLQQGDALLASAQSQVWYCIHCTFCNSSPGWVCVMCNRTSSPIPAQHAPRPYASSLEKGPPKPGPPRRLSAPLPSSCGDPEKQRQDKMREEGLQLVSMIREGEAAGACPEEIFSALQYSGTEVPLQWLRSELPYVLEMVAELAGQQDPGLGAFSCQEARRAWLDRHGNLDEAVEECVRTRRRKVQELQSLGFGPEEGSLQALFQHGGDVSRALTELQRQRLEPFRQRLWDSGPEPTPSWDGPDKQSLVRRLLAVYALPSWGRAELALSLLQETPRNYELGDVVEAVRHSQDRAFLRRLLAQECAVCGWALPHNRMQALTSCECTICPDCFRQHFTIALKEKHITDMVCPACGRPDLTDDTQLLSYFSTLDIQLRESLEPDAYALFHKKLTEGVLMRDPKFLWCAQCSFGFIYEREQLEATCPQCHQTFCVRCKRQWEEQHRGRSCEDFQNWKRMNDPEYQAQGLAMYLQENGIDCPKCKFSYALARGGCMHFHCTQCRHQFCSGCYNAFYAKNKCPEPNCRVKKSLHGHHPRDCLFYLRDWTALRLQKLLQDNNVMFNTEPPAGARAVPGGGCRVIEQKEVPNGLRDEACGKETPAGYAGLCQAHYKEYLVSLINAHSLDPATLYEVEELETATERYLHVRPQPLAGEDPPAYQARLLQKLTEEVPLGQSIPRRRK

Target: STAT1 mutated at Ser727 (UniProt P42224)
Experiment: co-IP; both partners tagged and co-transfected in HEK293T cells; lysis buffer 150 mM NaCl, 20 mM Tris-HCl pH 7.4, 0.5 mM EDTA, 1% NP-40; protein G agarose, 4 C; some panels with IFNα (1000 IU/ml, 15 min) or Flag-LUBAC overexpression

binding: binds
Substance: Flag-HOIP (from UniProt Q96EP0 1-1072) (enzyme)
